Measurements reported in PubChem BioAssay AID504786 (Drosophila RNAi Screening Center, 2011)
Purpose: 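Fly genes required for HIF-dependent transcription when hypoxia is mimicked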 (primary screen). Cells: Drosophila S2 cells with a stable HIF luciferase reporter. Reagent: long dsRNA against Drosophila genes, about 0.2 µg dsRNA per well of a 384-well plate. Time to read-out: three days of knock-down, then 20 h of DFO before reading. Challenge: desferrioxamine (DFO) at 100 µM, an iron chelator that mimics hypoxia, for 20 h. Detection: 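Firefly luciferase driven by the mouse ldh-a hypoxia-response element, measured after 20 h of 100 µM DFO; z-scores per plate, higher means more signal lost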. Reading the numbers: z-score: higher = stronger loss of HIF reporter signal.
The deposit covers about 21,000 reagents; below is a random part of those with a known target gene and a result. 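Primary screen; positive scores mean lost reporter signal, so the sign may be inverted from the usual convention.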 Names joined by + are all predicted targets of the reagent. Reagent sequences are not shown.

no.	gene	DRSC id	z-score, replicate 1	z-score, replicate 2	z-score, replicate 3	z-score, replicate 4
1	CG7903	DRSC16338	-0.1	-0.6		
2	spn-E (spindle E)	DRSC17064	-0.2	-0.5		
3	Burs (Bursicon)	DRSC14595	-0.2	-0.5		
4	CG3748	DRSC02716	-0.2	-0.1		
5	t-cup (tetleys-cup)	DRSC01254	0.3	0.2		
6	CG7556	DRSC20052	-0.5	-0.2		
7	CG15784	DRSC18090	-0.1	0.1		
8	ODA-Dnal1 (Outer dynein arm dynein axonemal light chain 1)	DRSC07270	-0.3	-0.6		
9	CG34305	DRSC11995	-0.5	0		
10	CG14253	DRSC14748	-0.3	-0.4		
11	sinah (sina homologue)	DRSC09910	-0.4	-0.4		
12	PIG-S (Phosphatidylinositol glycan anchor biosynthesis class S)	DRSC14643	-0.2	-0.1		
13	PIG-S (Phosphatidylinositol glycan anchor biosynthesis class S)	DRSC15388	-0.4	-0.9		
14	PIG-S (Phosphatidylinositol glycan anchor biosynthesis class S)	DRSC15952	-0.2	0.2		
15	REG (Proteasome regulator gamma)	DRSC20273	0.3	-0.1		
16	CG2765	DRSC04315	-0.2	0.8		
17	trol (terribly reduced optic lobes)	DRSC17714	0.2	0.1		
18	trol (terribly reduced optic lobes)	DRSC17718	0.1	-0.1		
19	trol (terribly reduced optic lobes)	DRSC18613	-0.2	-0.6		
20	trol (terribly reduced optic lobes)	DRSC18814	-0.3	-0.1		
21	kek3 (kekkon 3)	DRSC03553	-0.3	-0.3	-0.2	-0.3
22	CG6959	DRSC16151	-0.4	-0.4		
23	CG9822	DRSC04568	0	0.9		
24	Wdr59 (WD repeat domain 59)	DRSC02771	-0.4	-0.6		
25	mdlc (midlife crisis)	DRSC15690	-0.1	0.3		
26	Rich (RIC1 homolog)	DRSC11607	-0.2	-0.2		
27	eIF4B (eukaryotic translation initiation factor 4B)	DRSC20983	-0.4	-0.6		
28	CG42813 + CG42814	DRSC15939	-0.2	-0.5		
29	CG42813 + CG42814	DRSC15940	-0.1	-0.3		
30	CG9777	DRSC20208	-0.2	3		
31	CG3740	DRSC18508	-0.4	-0.1		
32	Spn43Ad (Serpin 43Ad)	DRSC06770	-0.3	-0.6		
33	Chsy (Chondroitin sulfate synthase)	DRSC20175	-0.5	-0.3		
34	Chsy (Chondroitin sulfate synthase)	DRSC20176	-0.3	-0.6		
